In patent EP1257648B2 (AMGEN INC., dated 2016):
Results are given in words; binding and its absence hold for the method and conditions named. Some entries that bind do so weakly or less than the wild type.

Target: T1, human OPGbp[143-317] (human, UniProt O14788 143-317)
T1 sequence (looked up): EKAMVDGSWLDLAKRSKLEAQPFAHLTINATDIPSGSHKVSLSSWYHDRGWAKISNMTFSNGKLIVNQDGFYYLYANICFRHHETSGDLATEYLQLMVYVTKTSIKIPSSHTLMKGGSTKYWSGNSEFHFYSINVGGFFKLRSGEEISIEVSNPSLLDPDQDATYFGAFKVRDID
Assay: phage ELISA on plated OPGbp[143-317]

binding: binds
B1: Fab "S" (Fab, V domains shown)
VH: EVQLLESGGGLVQPGRSLRLSCAASGFTFDDYAMHWVRQAPGKGLEWVSGISWNSGRIGYADSVKGRFTISRDNAKNSLYLQMNSLRPEDTAFYYCAKGGSTSARYSSGWYYWGQGTLVTVSS
VL: QSVLTQPPSVSVSPGQTATITCSGDALPKQYVYWYRQKPGQAPLLVIYEDSERPSGIPERFSGSSSGTEVTLSISGVQAEDEADYYCQSTDSSGTYVVFGGGTKLTVLS
